# At least one structure is not confirmed: it was looked up by name or label, or the drawing left a doubt.
# System: human retina pigment epithelium (ARPE-19)
# Assay: MTT assay, cell viability of retina cells against cytotoxicity induced by glucose oxidase (GOX)
# Assay type: cell-based
# Settings: cytotoxicity induced by GOX 50 mU/ml; 1 µM; n = 5
# Procedure: The MTT assay was used to measure the viability of both neuronal and retina cells. The cells were prepared in a 96-well plate in DMEM-F12 with 7% FBS. After cultured in DMEM-F12 without serum for 12 h, Ab25-35 ([…]) or glucose oxidase (GOX) alone or in combination with homotaurine (Hom), citicoline (CITC) or Hom + CITC were added to the medium. Twenty-four hours later, the cells were incubated with […] MTT (Roche, 0.5 mg/ml) at 37 °C for 4 hours, then the crystals were dissolved in […] DMSO. Absorbance at 570 nm was measured with a spectrophotometer (TECAN Infinite M200, Switzerland).
smiles,measurement,value
"C[N+](C)(C)CCOP(=O)(O)OP(=O)([O-])OC[C@H]1O[C@@H](n2ccc(N)nc2=O)[C@H](O)[C@@H]1O [citicoline, 2-[{[5-(4-amino-2-oxopyrimidin-1-yl)-3,4-dihydroxyoxolan-2-yl]methoxy-hydroxyphosphoryl}oxy-hydroxyphosphoryl]oxyethyl-thrimethylazanium]",cell viability (MTT),able to improve the cell viability
